Some of these results come from one statement about several compounds together. At least one structure is not confirmed: it was looked up by name or label, or the drawing left a doubt.
Test system: DNA G-quadruplex
Assay: Chemmap genome-wide mapping of G4 ligand binding sites (PDS, PhenDC3)
Design: species or system human
Conditions: K562 cells
Procedure: Cell preparation. U-2 OS cells were detached using accutase and immediately quenched using complete culture media. U-2 OS and K562 suspension cells were harvested by centrifugation and fixed in 0.1% formaldehyde (Thermo Scientific, 28906) in PBS for 2 min at room temperature, followed by quenching with glycine to a final concentration of 75 mM. Fixed cells were collected by centrifugation at 600×g for 4 min, followed by resuspension in cold wash buffer (20 mM HEPES pH7.5, 150 mM NaCl and 0.5 mM spermidine (Sigma, S0266)) in nuclease-free water supplemented with a complete Protease Inhibitor, EDTA-free (Sigma, 11873580001). (Note: For Chemmap of G4 ligands NaCl was replaced by equivalent concentrations of KCl in all buffers to maintain G4 stability. For optimal results, the concentration of cells needs to be adjusted based on target abundance and relative affinity of the probes. We employed cells at 1500 cells/μL (JQ1-bio) and 6000 cells/μL (G4 ligands and biotinylated doxorubicin))
Probe-1st Ab complex assembly. Compound stock solution in DMSO was diluted to 10 μM in antibody buffer (2 mM EDTA, 0.1% BSA (Sigma, A8577), 0.05% digitonin (EMD Millipore, 300410) in wash buffer). […]

Row | Compound | signal correlation (rs) for PDS and PhenDC3 maps
1 | NCCOc1cc(C(=O)Nc2cc(OCCN)c3ccccc3n2)nc(C(=O)Nc2cc(OCCN)c3ccccc3n2)c1 [PDS, Pyridostatin] | > 0.9
2 | C[n+]1cc(NC(=O)c2ccc3ccc4ccc(C(=O)Nc5cc6ccccc6[n+](C)c5)nc4c3n2)cc2ccccc21 [PhenDC3] | > 0.9

Reference: US20250382657A1, “METHODS FOR MAPPING BINDING SITES OF COMPOUNDS” (Cambridge Enterprise Limited, priority 2022, published 2025)
